Assay results reported in PMC8165280.
These are yes or no findings as the source states them, for the method shown. In cells and extracts the contact can be indirect. Some entries that bind do so weakly or less than the wild type. Where a sequence is shown, tags or fusion partners need not be part of it.

Target: T1, Flag-B7H3 (UniProt Q5ZPR3)
T1 sequence: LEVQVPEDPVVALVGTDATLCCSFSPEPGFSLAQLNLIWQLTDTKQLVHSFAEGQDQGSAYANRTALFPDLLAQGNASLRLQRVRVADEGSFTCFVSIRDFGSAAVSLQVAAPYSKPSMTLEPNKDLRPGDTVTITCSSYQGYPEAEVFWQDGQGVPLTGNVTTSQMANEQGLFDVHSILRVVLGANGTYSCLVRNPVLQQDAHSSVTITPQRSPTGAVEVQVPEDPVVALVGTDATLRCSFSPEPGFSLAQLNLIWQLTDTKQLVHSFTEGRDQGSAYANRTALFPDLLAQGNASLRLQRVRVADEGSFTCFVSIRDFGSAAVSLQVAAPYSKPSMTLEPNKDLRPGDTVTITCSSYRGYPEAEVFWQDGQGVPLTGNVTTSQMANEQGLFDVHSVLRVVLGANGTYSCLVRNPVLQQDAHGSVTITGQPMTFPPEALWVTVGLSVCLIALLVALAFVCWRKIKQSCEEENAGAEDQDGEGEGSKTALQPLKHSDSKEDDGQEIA
Assay: co-IP; Flag-B7H3 co-expressed with Myc-p62 in HEK293T cells, with or without CQ for 24 h; lysis in 0.3% NP-40 buffer (50 mM Tris-HCl pH 7.5, 150 mM NaCl); anti-Flag M2 affinity beads 3 h at 4°C; immunoblotting

Myc-p62 (from UniProt Q13501 1-440)
binding: binds
